According to the supplement of paper PMC12823440, “Inhibitors supercharge kinase turnover through native proteolytic circuits” (Nature, 2025):
Counter-ions that a name gives are not always drawn. The list shows a part of the results. The calls rarely recur for the same compound in another form.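 Kinases were expressed as nanoluciferase fusions in K562 cells and luminescence was read every 4 h between 2 and 18 h as percent of control, DMSO set to 100% and a positive control to 0%. A time point counts as decreased when the signal drops significantly (2 sigma). The hit call is the authors' own, does not follow from the count of time points alone, and its rule is not shown.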

Each molecule was assayed against EGFR (UniProt P00533) (assay: kinase-Nluc reporter destabilization hit call (1 = scored as downregulated) (binary); higher = compound decreases kinase abundance). Conditions: 2.5 µM; K562; 2-18 h.

kinase-Nluc reporter destabilization hit call, inactive:
C[C@H](Nc1cc(-c2cnn(C)c2)cc(Nc2cnccn2)n1)c1ccc(F)cc1 [Ilginatinib hydrochloride] 0
Cc1cccc(/C=N/Nc2cc(N3CCOCC3)nc(OCCc3ccccn3)n2)c1 [Apilimod] 0
Cc1ccc(NC(=O)c2ccc(CN3CCN(C)CC3)cc2)cc1Nc1nc(-c2cccnc2)cs1 [Masitinib (mesylate)] 0
COc1cc2nccc(Oc3ccc(NC(=O)C4(C(=O)Nc5ccc(F)cc5)CC4)cc3)c2cc1OC [Cabozantinib] 0
Cc1cccc(-c2[nH]c(CNc3ccccc3F)nc2-c2ccc3ncnn3c2)n1 [Vactosertib (Hydrochloride)] 0
CC(C)Oc1ccc(-c2nn([C@@H](C)c3oc4ccc(F)cc4c(=O)c3-c3cccc(F)c3)c3ncnc(N)c23)cc1F [Umbralisib (hydrochloride)] 0
CN(C)C(=O)c1cc2cnc(Nc3ccc(N4CCNCC4)cn3)nc2n1C1CCCC1 [Ribociclib succinate hydrate] 0
O=C(Nc1ccncc1)Nc1ccc(-c2nc(N3CCOCC3)nc(N3C4CCC3COC4)n2)cc1 [PKI-179 (hydrochloride)] 0
C=CC(=O)Nc1cc(Nc2nccc(-c3cn(C4CC4)c4ccccc34)n2)c(OC)cc1N(C)CCN(C)C [Almonertinib (hydrochloride)] 0
C=CC(=O)Nc1cc2c(Nc3ccc(F)c(Cl)c3)ncnc2cc1C#CC(C)(C)N1CCN(C)CC1 [AV-412 (free base)] 0
CNC(=O)c1cc(Oc2ccc(NC(=O)Nc3ccc(Cl)c(C(F)(F)F)c3)c(F)c2)ccn1 [Regorafenib] 0
